Drawing on PMC10744335, this text covers binding for 6 molecules.

These are yes or no findings as the source states them, for the method shown. In cells and extracts the contact can be indirect. These calls come from enrichment with a bait or labelling near it, and not all partners need be listed. Tags and fused reporters may be left off the sequences shown.

To fix the notation:
B1: Carbonyl reductase [NADPH] 3 (enzyme, UniProt O75828 1-277)
chain: MSSCSRVALVTGANRGIGLAIARELCRQFSGDVVLTARDVARGQAAVQQLQAEGLSPRFHQLDIDDLQSIRALRDFLRKEYGGLNVLVNNAAVAFKSDDPMPFDIKAEMTLKTNFFATRNMCNELLPIMKPHGRVVNISSLQCLRAFENCSEDLQERFHSETLTEGDLVDLMKKFVEDTKNEVHEREGWPNSPYGVSKLGVTVLSRILARRLDEKRKADRILVNACCPGPVKTDMDGKDSIRTVEEGAETPVYLALLPPDATEPQGQLVHDKVVQNW
B2: Pyrroline-5-carboxylate reductase 1, mitochondrial (enzyme, UniProt P32322 1-319)
chain: MSVGFIGAGQLAFALAKGFTAAGVLAAHKIMASSPDMDLATVSALRKMGVKLTPHNKETVQHSDVLFLAVKPHIIPFILDEIGADIEDRHIVVSCAAGVTISSIEKKLSAFRPAPRVIRCMTNTPVVVREGATVYATGTHAQVEDGRLMEQLLSSVGFCTEVEEDLIDAVTGLSGSGPAYAFTALDALADGGVKMGLPRRLAVRLGAQALLGAAKMLLHSEQHPGQLKDNVSSPGGATIHALHVLESGGFRSLLINAVEASCIRTRELQSMADQEQVSPAAIKKTILDKVKLDSPAGTALSPSGHTKLLPRSLAPAGKD
B3: Pyrroline-5-carboxylate reductase 2 (enzyme, UniProt Q96C36 1-320)
chain: MSVGFIGAGQLAYALARGFTAAGILSAHKIIASSPEMNLPTVSALRKMGVNLTRSNKETVKHSDVLFLAVKPHIIPFILDEIGADVQARHIVVSCAAGVTISSVEKKLMAFQPAPKVIRCMTNTPVVVQEGATVYATGTHALVEDGQLLEQLMSSVGFCTEVEEDLIDAVTGLSGSGPAYAFMALDALADGGVKMGLPRRLAIQLGAQALLGAAKMLLDSEQHPCQLKDNVCSPGGATIHALHFLESGGFRSLLINAVEASCIRTRELQSMADQEKISPAALKKTLLDRVKLESPTVSTLTPSSPGKLLTRSLALGGKKD
B4: Polymerase delta-interacting protein 3 (protein, UniProt Q9BY77 1-421)
chain: MADISLDELIRKRGAAAKGRLNARPGVGGVRSRVGIQQGLLSQSTRTATFQQRFDARQKIGLSDARLKLGVKDAREKLLQKDARFRIKGKVQDAREMLNSRKQQTTVPQKPRQVADAREKISLKRSSPAAFINPPIGTVTPALKLTKTIQVPQQKAMAPLHPHPAGMRINVVNNHQAKQNLYDLDEDDDGIASVPTKQMKFAASGGFLHHMAGLSSSKLSMSKALPLTKVVQNDAYTAPALPSSIRTKALTNMSRTLVNKEEPPKELPAAEPVLSPLEGTKMTVNNLHPRVTEEDIVELFCVCGALKRARLVHPGVAEVVFVKKDDAITAYKKYNNRCLDGQPMKCNLHMNGNVITSDQPILLRLSDSPSMKKESELPRRVNSASSSNPPAEVDPDTILKALFKSSGASVTTQPTEFKIKL
B5: BTB/POZ domain-containing adapter for CUL3-mediated RhoA degradation protein 2 (protein, UniProt Q13829 1-316)
chain: MSGDTCLCPASGAKPKLSGFKGGGLGNKYVQLNVGGSLYYTTVRALTRHDTMLKAMFSGRMEVLTDKEGWILIDRCGKHFGTILNYLRDDTITLPQNRQEIKELMAEAKYYLIQGLVNMCQSALQDKKDSYQPVCNIPIITSLKEEERLIESSTKPVVKLLYNRSNNKYSYTSNSDDHLLKNIELFDKLSLRFNGRVLFIKDVIGDEICCWSFYGQGRKLAEVCCTSIVYATEKKQTKVEFPEARIYEETLNVLLYETPRVPDNSLLEATSRSRSQASPSEDEETFELRDRVRRIHVKRYSTYDDRQLGHQSTHRD
B6: Carbonyl reductase [NADPH] 1 (enzyme, UniProt P16152 1-277)
chain: MSSGIHVALVTGGNKGIGLAIVRDLCRLFSGDVVLTARDVTRGQAAVQQLQAEGLSPRFHQLDIDDLQSIRALRDFLRKEYGGLDVLVNNAGIAFKVADPTPFHIQAEVTMKTNFFGTRDVCTELLPLIKPQGRVVNVSSIMSVRALKSCSPELQQKFRSETITEEELVGLMNKFVEDTKKGVHQKEGWPSSAYGVTKIGVTVLSRIHARKLSEQRKGDKILLNACCPGWVRTDMAGPKATKSPEEGAETPVYLALLPPDAEGPHGQFVSEKRVEQW

This assay addresses T1, GST-tagged bacterially expressed TIMAP protein (human) (UniProt Q96T49).
T1 sequence: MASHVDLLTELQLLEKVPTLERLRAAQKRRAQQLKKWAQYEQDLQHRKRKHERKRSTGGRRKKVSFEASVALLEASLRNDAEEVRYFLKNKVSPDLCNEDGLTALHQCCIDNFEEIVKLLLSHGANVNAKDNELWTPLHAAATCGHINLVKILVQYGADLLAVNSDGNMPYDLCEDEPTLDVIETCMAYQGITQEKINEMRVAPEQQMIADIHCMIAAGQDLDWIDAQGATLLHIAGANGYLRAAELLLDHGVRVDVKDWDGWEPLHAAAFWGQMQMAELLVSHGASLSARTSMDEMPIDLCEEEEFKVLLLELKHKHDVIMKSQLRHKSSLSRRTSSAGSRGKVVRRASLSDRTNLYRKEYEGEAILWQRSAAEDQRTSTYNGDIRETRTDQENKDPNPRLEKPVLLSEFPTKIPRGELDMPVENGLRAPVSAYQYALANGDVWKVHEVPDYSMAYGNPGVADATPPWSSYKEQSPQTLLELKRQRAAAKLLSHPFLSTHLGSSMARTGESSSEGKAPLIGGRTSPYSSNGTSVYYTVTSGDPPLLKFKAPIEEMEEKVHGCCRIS
Briefly: affinity purification with mass spectrometry; GST–TIMAP pull-down from the nuclear fraction of undifferentiated SH-SY5Y cells; bound proteins separated on SDS-PAGE, MS/MS analysis; only the target purified.
Take B1: the binding entry was “binds”.

Consider B2, for which the binding entry is reported as “binds”. For B3 the value was “binds”. For B4 the value was “binds”; for B5, “binds”.

For the molecule B6, the binding entry was “binds”.
